We go through 38 sequences from paper PMC7862700.

The list shows a part of the results, in another mix than the full data. At the low end of the ranking the order means little.

The target in this test is SPI1 (UniProt P17947). Description: DAPPL (digital affinity profiling via proximity ligation, sequencing). The conditions noted are these: 10 mM Tris-HCl pH 7.5, 50 mM NaCl, 1 mM DTT, 4% glycerol, room temperature, 30 min; GST-TFs on glutathione beads, 16-mer random dsDNA library, 0.1% …; high values mean tight binding; double strand, one strand shown; scale: fold enrichment (6-mer frequency, TF over GST control).
On to CACCGG, for which the binding signal stood at 1.08.

On to TATCAA, for which the binding signal is 1.02.

The sequence TCGAGG returned a binding signal of 0.838.

For CTGCGC, the binding signal stood at 1.31.

GGAATA came in with a binding signal of 0.907.

AAACCT registered a binding signal of 1.18.

In turn, AATCAC came in with a binding signal of 1.12.

GTGTAC yielded a binding signal of 0.943.

Sequence CAAGCT displayed a binding signal of 0.897.

CGGCAT came in with a binding signal of 1.13.

In turn, AGCACG gave a binding signal of 0.931.

The sequence AGTTTA registered a binding signal of 1.01.

TCTCCA had a binding signal of 1.57.

Consider CCCGCG, for which the binding signal came out at 0.882.

For the sequence TTACGC, the binding signal turned out to be 1.07.

The sequence AACCCC showed a binding signal of 1.12.

Sequence GACTCG had a binding signal of 0.865.

The sequence TGTACG registered a binding signal of 1.19.

In the case of AGATTA, the binding signal is 1.01.

Regarding CGCACG, the binding signal is 0.937.

With GCAGGT, the binding signal was 0.83.

CAACTT displayed a binding signal of 1.69.

With GCAGCC, the binding signal turned out to be 0.9.

Consider TACAGC, for which the binding signal came out at 0.931.

AACAGA registered a binding signal of 0.982.

As for ATGTGC, the binding signal turned out to be 1.06.

Regarding CCAGCT, the binding signal was determined as 0.982.

CAGCAC had a binding signal of 0.936.

As to AAACTC, the binding signal amounted to 1.13.

CAGATA showed a binding signal of 0.937.

In turn, AGTTTG showed a binding signal of 0.915.

In the case of TACAGG, the binding signal was found to be 1.12.

The sequence CCACGT had a binding signal of 0.845.

Sequence GCGCGC showed a binding signal of 1.05.

Sequence GCATTA came in with a binding signal of 0.8.

Regarding TCGAGC, the binding signal worked out at 0.938.

GTTGCC had a binding signal of 0.869.

Turning to TCTAGA, the binding signal came out at 0.98.
